The list is a part of this screen's results and no random one: it gathers tests that were run many times, whatever their T/C, doses with no T/C, and many T/C values between a quarter and a half above the control. Other doses and runs of a compound stand elsewhere. T/C is the treated group as % of the vehicle group. Some entries give survivors of the animals treated and no T/C: the source holds a T/C of zero for them, seemingly a mark for toxic or unscored doses. Some doses without a T/C left all or most animals alive at the check, yet need not have been tolerated: the source hardly ever lists a survival T/C far under the control, and the zero likely stands for such cases as well. Counts of survivors are from the toxicity check (mostly the fifth day) where no day follows; animals may have died later. Schedule codes are those of the source, taken here to give the interval after Q, in days (D) or hours (H), and the number of doses after X. Some structures stand for samples that the source files as different forms (salt, stereo form or complex); doses refer to the form tested. Where survival is the endpoint, the PubChem record calls one and a half times the control and up active, and a quarter to a half above the control has no call in these data; cut-offs in other NCI protocols can differ. Some doses were run more than once; the results are listed from low to high.
System: L1210 leukemia ip in BDF1 mice, survival T/C
Test: NCI In Vivo Anticancer Drug Screen. Data for tumor model L1210 Leukemia (intraperitoneal) in B6D2F1 (BDF1) mice
Conditions: higher T/C = longer survival

`NC(C/[N+]([O-])=N/O)C(=O)O` (stereo not given) was tested, and the T/C (T/C endpoint: mean survival time, dose: 25.0 mg/kg/injection, schedule: Q01DX009 (ip), vehicle: saline) was 125 % of control, the T/C (T/C endpoint: mean survival time, dose: 32.0 mg/kg/injection, schedule: Q03HX016 (ip), vehicle: saline) was 125 % of control and the T/C (T/C endpoint: mean survival time, dose: 50.0 mg/kg/injection, schedule: Q01DX009 (ip), vehicle: saline) was 120, 127, 129, 141 % of control. For the same compound, the T/C (T/C endpoint: mean survival time, dose: 64.0 mg/kg/injection, schedule: Q03HX016 (ip), vehicle: saline) was 127 % of control, the T/C (T/C endpoint: mean survival time, dose: 67.0 mg/kg/injection, schedule: Q01DX009 (ip), vehicle: saline with Tween-80) was 128 % of control and the T/C (T/C endpoint: mean survival time, dose: 80.0 mg/kg/injection, schedule: Q01DX009 (ip), vehicle: saline) was 131 % of control. For the same compound, the T/C (T/C endpoint: mean survival time, dose: 82.0 mg/kg/injection, schedule: Q04DX003 (ip), vehicle: saline with Tween-80) was 126 % of control, the T/C (T/C endpoint: mean survival time, dose: 100.0 mg/kg/injection, schedule: Q01DX003 (ip), vehicle: sodium bicarbonate) was 133 % of control and the T/C (T/C endpoint: mean survival time, dose: 100.0 mg/kg/injection, schedule: Q01DX009 (ip), vehicle: saline with Tween-80) was 140 and 141 % of control. The T/C (T/C endpoint: mean survival time, dose: 100.0 mg/kg/injection, schedule: Q01DX009 (ip), vehicle: saline) was 127, 136, 141, 146 % of control, the T/C (T/C endpoint: mean survival time, dose: 100.0 mg/kg/injection, schedule: Q04DX003 (ip), vehicle: Klucel (hydroxypropylcellulose) (HPC)) was 125 % of control and the T/C (T/C endpoint: mean survival time, dose: 100.0 mg/kg/injection, schedule: Q04DX003 (ip), vehicle: saline with Tween-80) was 145 % of control. The T/C (T/C endpoint: mean survival time, dose: 100.0 mg/kg/injection, schedule: Q04DX003 (ip), vehicle: saline) was 128, 129, 142, 148 % of control, the T/C (T/C endpoint: mean survival time, dose: 124.0 mg/kg/injection, schedule: Q04DX003 (ip), vehicle: saline with Tween-80) was 129 % of control and the survivor count (T/C endpoint: mean survival time, dose: 128.0 mg/kg/injection, schedule: Q01DX009 (oral), vehicle: saline) was 8 of 8. For the same compound, the T/C (T/C endpoint: mean survival time, dose: 128.0 mg/kg/injection, schedule: Q03HX024 (ip), vehicle: saline) was 143 % of control, the T/C (T/C endpoint: mean survival time, dose: 150.0 mg/kg/injection, schedule: Q01DX009 (ip), vehicle: saline) was 142 % of control and the T/C (T/C endpoint: mean survival time, dose: 187.0 mg/kg/injection, schedule: Q04DX003 (ip), vehicle: saline with Tween-80) was 137 % of control. For the same compound, the survivor count (T/C endpoint: mean survival time, dose: 200.0 mg/kg/injection, schedule: Q01DX009 (ip), vehicle: saline with Tween-80) was 6 of 6, the T/C (T/C endpoint: mean survival time, dose: 200.0 mg/kg/injection, schedule: Q04DX003 (ip), vehicle: Klucel (hydroxypropylcellulose) (HPC)) was 138 % of control and the T/C (T/C endpoint: mean survival time, dose: 200.0 mg/kg/injection, schedule: Q04DX003 (ip), vehicle: saline with Tween-80, evaluated on day 30) was 143 % of control. The T/C (T/C endpoint: mean survival time, dose: 200.0 mg/kg/injection, schedule: Q04DX003 (ip), vehicle: saline with Tween-80, evaluated on day 60) was 136 % of control, the T/C (T/C endpoint: mean survival time, dose: 200.0 mg/kg/injection, schedule: Q04DX003 (ip), vehicle: saline) was 139, 141, 149 % of control and the survivor count (T/C endpoint: mean survival time, dose: 256.0 mg/kg/injection, schedule: Q01DX009 (oral), vehicle: saline) was 6 of 8. For the same compound, the survivor count (T/C endpoint: mean survival time, dose: 256.0 mg/kg/injection, schedule: Q01DX009 (sc), vehicle: saline) was 7 of 8, the T/C (T/C endpoint: mean survival time, dose: 256.0 mg/kg/injection, schedule: Q04DX003 (ip), vehicle: saline) was 138 % of control and the T/C (T/C endpoint: mean survival time, dose: 266.0 mg/kg/injection, schedule: Q04DX003 (ip), vehicle: saline with Tween-80) was 142 % of control. For the same compound, the T/C (T/C endpoint: mean survival time, dose: 320.0 mg/kg/injection, schedule: Q01DX009 (ip), vehicle: saline) was 129 % of control, the survivor count (T/C endpoint: mean survival time, dose: 400.0 mg/kg/injection, schedule: Q01DX009 (ip), vehicle: saline with Tween-80) was 4 of 6 and the T/C (T/C endpoint: mean survival time, dose: 400.0 mg/kg/injection, schedule: Q04DX003 (ip), vehicle: saline with Tween-80, evaluated on day 30) was 121, 158, 162 % of control. The T/C (T/C endpoint: mean survival time, dose: 400.0 mg/kg/injection, schedule: Q04DX003 (ip), vehicle: saline with Tween-80, evaluated on day 60) was 160 % of control, the T/C (T/C endpoint: mean survival time, dose: 400.0 mg/kg/injection, schedule: Q04DX003 (ip), vehicle: saline) was 139 % of control and the survivor count (T/C endpoint: mean survival time, dose: 512.0 mg/kg/injection, schedule: Q01DX009 (oral), vehicle: saline) was 6 of 8. The survivor count (T/C endpoint: mean survival time, dose: 512.0 mg/kg/injection, schedule: Q01DX009 (sc), vehicle: saline) was 8 of 8, the T/C (T/C endpoint: mean survival time, dose: 512.0 mg/kg/injection, schedule: Q04DX003 (ip), vehicle: saline) was 131 % of control and the T/C (T/C endpoint: mean survival time, dose: 512.0 mg/kg/injection, schedule: Q08DX002 (ip), vehicle: saline) was 129 % of control. The T/C (T/C endpoint: mean survival time, dose: 600.0 mg/kg/injection, schedule: Q04DX003 (ip), vehicle: Klucel (hydroxypropylcellulose) (HPC)) was 125 % of control, the T/C (T/C endpoint: mean survival time, dose: 600.0 mg/kg/injection, schedule: Q04DX003 (ip), vehicle: saline with Tween-80, evaluated on day 30) was 146 % of control and the T/C (T/C endpoint: mean survival time, dose: 600.0 mg/kg/injection, schedule: Q04DX003 (ip), vehicle: saline with Tween-80, evaluated on day 60) was 142 % of control. For the same compound, the T/C (T/C endpoint: mean survival time, dose: 600.0 mg/kg/injection, schedule: Q04DX003 (ip), vehicle: saline) was 148 % of control, the survivor count (T/C endpoint: mean survival time, dose: 1000.0 mg/kg/injection, schedule: Q04DX003 (ip), vehicle: Klucel (hydroxypropylcellulose) (HPC)) was 8 of 10 and the survivor count (T/C endpoint: mean survival time, dose: 1024.0 mg/kg/injection, schedule: Q01DX001 (ip), vehicle: saline) was 5 of 8. For the same compound, the survivor count (T/C endpoint: mean survival time, dose: 1024.0 mg/kg/injection, schedule: Q01DX001 (oral), vehicle: saline) was 5 of 8, the survivor count (T/C endpoint: mean survival time, dose: 1024.0 mg/kg/injection, schedule: Q01DX009 (oral), vehicle: saline) was 2 of 8 and the T/C (T/C endpoint: mean survival time, dose: 1024.0 mg/kg/injection, schedule: Q08DX002 (ip), vehicle: saline) was 129 % of control. The T/C (T/C endpoint: median survival time, dose: 8.0 mg/kg/injection, schedule: Q01DX009 (ip), vehicle: saline) was 127 % of control, the T/C (T/C endpoint: median survival time, dose: 8.0 mg/kg/injection, schedule: Q03HX008 (ip), vehicle: saline) was 127 % of control and the T/C (T/C endpoint: median survival time, dose: 8.0 mg/kg/injection, schedule: Q03HX024 (ip), vehicle: saline) was 133 % of control. For the same compound, the T/C (T/C endpoint: median survival time, dose: 16.0 mg/kg/injection, schedule: Q01DX009 (ip), vehicle: saline) was 144 % of control and the T/C (T/C endpoint: median survival time, dose: 16.0 mg/kg/injection, schedule: Q03HX016 (ip), vehicle: saline) was 133 % of control.

Reference: PubChem BioAssay AID248 (DTP/NCI, 2004)
